Results are given in words; binding and its absence hold for the method and conditions named. In cells and extracts the contact can be indirect. Some results given as binding are weak or reduced against the parent protein; the word gives no strength.

The chains behind the UniProt entries cited, without tags or fusion partners. Where a name states a change or a piece, a line headed by the entry shows the natural chain unless it says otherwise.
UniProt O96017: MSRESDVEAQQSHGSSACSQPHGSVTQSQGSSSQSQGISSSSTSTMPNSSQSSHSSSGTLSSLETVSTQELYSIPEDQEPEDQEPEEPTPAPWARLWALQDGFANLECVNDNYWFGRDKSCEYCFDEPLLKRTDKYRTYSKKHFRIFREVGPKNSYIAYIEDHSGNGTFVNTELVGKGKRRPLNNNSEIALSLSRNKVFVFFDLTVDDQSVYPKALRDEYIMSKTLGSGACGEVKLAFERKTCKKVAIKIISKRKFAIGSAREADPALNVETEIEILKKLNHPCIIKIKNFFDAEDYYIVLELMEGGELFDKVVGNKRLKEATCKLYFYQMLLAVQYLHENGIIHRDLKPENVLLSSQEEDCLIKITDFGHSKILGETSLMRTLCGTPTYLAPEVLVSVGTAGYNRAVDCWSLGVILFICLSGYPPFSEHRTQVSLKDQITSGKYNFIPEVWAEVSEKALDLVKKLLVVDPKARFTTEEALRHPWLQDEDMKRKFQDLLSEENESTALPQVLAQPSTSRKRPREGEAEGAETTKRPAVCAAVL
UniProt P78527: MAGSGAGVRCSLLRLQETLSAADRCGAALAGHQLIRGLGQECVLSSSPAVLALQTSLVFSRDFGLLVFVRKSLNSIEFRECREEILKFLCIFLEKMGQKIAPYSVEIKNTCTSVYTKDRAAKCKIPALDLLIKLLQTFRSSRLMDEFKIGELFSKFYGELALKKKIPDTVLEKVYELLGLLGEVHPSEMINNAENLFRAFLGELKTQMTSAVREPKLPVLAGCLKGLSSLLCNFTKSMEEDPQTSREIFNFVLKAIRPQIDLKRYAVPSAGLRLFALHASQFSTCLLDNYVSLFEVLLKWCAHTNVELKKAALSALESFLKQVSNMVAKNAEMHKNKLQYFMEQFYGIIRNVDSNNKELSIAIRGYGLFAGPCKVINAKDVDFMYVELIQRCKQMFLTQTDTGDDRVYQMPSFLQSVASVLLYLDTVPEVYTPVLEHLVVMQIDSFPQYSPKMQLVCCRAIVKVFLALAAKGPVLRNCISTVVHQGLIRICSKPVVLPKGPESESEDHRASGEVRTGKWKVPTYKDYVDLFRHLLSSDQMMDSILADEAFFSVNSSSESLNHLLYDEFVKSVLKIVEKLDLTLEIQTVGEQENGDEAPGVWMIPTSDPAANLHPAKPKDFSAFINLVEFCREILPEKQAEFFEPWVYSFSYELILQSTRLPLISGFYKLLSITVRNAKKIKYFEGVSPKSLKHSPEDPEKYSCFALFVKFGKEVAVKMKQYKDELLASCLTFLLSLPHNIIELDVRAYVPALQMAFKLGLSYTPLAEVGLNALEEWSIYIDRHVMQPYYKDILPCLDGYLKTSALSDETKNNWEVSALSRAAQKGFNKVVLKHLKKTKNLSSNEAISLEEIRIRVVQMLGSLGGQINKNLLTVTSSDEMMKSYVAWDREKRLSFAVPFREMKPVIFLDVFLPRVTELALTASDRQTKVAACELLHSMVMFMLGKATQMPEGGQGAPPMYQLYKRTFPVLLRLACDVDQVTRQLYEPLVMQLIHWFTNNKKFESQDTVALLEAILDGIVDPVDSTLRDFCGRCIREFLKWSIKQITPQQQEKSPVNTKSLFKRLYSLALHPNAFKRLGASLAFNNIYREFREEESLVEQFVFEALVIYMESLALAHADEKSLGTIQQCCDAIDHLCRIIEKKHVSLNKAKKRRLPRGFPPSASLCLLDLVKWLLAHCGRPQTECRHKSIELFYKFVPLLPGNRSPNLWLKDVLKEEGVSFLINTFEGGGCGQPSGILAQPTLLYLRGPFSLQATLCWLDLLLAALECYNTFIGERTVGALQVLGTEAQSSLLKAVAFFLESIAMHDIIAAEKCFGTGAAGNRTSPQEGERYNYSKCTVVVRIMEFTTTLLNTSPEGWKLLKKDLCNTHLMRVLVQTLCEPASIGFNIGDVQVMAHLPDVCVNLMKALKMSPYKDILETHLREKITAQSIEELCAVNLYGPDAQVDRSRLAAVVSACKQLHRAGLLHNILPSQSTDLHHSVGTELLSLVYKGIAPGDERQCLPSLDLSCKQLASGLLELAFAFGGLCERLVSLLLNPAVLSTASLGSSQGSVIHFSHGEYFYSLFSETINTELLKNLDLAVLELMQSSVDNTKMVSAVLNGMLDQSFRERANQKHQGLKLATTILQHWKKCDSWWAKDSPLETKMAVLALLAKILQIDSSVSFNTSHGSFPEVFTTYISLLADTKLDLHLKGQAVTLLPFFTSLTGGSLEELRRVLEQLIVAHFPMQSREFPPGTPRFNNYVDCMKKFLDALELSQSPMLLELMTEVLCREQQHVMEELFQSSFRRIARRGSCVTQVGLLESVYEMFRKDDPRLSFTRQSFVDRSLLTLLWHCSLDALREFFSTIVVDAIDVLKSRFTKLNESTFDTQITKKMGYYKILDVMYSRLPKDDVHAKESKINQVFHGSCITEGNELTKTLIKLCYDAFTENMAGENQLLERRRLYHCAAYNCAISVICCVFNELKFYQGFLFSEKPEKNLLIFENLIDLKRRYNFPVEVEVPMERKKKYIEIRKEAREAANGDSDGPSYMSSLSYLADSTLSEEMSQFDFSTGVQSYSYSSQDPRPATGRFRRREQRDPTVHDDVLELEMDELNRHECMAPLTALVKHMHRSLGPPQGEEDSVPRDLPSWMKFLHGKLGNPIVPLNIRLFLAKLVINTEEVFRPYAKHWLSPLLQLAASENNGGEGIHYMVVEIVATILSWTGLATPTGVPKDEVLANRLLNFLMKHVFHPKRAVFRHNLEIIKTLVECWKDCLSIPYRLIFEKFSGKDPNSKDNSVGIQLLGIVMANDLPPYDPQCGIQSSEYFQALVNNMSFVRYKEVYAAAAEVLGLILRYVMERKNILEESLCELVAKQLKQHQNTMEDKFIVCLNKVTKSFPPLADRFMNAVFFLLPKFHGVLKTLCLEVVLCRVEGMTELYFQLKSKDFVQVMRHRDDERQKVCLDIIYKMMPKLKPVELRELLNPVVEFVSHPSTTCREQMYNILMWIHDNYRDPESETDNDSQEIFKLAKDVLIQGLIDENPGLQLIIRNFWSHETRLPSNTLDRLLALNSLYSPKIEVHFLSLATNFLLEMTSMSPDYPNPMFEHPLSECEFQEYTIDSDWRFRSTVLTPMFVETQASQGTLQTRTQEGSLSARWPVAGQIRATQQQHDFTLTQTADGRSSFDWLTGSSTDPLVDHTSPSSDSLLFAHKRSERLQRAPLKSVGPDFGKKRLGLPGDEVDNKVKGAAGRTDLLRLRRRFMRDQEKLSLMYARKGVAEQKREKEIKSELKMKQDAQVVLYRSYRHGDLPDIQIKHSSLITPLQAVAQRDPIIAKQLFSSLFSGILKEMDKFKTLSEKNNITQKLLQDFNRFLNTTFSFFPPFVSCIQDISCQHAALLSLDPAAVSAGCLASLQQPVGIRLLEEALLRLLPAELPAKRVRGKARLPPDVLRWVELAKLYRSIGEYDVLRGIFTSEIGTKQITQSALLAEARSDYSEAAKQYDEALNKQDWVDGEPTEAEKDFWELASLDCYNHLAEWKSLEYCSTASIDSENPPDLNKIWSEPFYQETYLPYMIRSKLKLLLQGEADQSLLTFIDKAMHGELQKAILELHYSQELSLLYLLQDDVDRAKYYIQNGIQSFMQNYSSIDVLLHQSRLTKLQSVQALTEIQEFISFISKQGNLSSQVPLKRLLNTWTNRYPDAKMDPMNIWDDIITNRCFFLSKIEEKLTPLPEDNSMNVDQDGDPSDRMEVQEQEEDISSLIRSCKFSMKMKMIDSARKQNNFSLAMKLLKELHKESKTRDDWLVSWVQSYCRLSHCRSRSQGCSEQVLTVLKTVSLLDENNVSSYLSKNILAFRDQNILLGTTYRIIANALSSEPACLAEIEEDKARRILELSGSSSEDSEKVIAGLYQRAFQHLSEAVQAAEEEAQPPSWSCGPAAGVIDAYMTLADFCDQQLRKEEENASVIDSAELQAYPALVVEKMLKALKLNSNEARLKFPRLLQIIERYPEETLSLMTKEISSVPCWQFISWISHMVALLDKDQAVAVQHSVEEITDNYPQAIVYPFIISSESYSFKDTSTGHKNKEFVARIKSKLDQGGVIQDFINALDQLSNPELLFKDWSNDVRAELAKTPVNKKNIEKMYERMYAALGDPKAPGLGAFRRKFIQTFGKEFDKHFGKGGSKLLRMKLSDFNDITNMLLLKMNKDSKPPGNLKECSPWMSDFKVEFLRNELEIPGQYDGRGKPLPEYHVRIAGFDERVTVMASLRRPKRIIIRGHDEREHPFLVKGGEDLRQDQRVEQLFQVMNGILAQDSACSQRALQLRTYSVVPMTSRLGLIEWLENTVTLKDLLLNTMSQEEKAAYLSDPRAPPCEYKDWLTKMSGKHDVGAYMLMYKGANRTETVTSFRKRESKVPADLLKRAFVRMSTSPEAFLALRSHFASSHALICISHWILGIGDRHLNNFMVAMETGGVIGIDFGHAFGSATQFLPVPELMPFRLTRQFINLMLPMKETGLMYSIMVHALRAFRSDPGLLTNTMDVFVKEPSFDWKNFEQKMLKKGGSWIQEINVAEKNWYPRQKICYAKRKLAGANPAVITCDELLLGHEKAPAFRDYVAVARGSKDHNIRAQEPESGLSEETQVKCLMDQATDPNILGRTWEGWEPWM
UniProt P09874: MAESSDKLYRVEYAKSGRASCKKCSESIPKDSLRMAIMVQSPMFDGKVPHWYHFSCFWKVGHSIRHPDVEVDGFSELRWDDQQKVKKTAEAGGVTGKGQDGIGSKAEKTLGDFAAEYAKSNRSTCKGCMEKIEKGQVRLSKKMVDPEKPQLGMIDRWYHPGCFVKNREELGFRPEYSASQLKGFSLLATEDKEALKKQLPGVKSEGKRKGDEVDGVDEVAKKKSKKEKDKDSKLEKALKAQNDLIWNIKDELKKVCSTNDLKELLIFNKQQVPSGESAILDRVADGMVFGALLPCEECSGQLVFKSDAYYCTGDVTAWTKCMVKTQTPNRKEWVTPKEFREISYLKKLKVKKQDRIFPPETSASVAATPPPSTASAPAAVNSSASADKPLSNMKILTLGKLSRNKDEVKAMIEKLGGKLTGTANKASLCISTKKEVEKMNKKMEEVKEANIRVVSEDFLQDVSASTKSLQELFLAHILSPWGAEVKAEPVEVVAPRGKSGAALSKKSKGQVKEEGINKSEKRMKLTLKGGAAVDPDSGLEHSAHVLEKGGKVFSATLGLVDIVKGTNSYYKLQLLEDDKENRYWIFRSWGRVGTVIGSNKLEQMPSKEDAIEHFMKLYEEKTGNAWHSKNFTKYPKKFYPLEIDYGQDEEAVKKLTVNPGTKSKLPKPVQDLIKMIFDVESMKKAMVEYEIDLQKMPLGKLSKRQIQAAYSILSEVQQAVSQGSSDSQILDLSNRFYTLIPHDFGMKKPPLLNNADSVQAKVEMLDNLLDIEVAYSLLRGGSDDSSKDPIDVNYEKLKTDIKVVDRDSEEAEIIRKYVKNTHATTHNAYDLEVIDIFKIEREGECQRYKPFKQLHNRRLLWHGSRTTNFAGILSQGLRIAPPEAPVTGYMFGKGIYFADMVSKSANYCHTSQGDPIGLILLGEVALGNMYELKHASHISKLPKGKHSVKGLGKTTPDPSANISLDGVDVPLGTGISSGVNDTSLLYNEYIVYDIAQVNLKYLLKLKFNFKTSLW

Experiment [1] deals with Checkpoint kinase 2 (CHK2), endogenous (human (endogenous in HT29)) (UniProt O96017). The experiment is described as follows: co-IP; endogenous proteins; lysates of HT29-P cells (mock-treated or treated with oxaliplatin) and HT29-OR cells; immunoprecipitated with anti-CHK2 antibody-conjugated agarose; mouse IgG as IP control; western blot. Background: In western blotting, separated proteins are transferred to a membrane and probed.

Experiment [2] addresses Flag-tagged CHK2 wild-type (F-CHK2-WT) (UniProt O96017). The experiment is described as follows: co-IP; lysates of HT29-P cells stably expressing F-CHK2 constructs, mock-treated or untreated (no oxaliplatin); immunoprecipitated with anti-FLAG M2 affinity gel; western blot for PARP1.
Experiment [3] deals with Flag-tagged CHK2 phosphomimetic mutant T68D (F-CHK2-TD) (UniProt O96017). Described as above.
The target of experiment [4] is Flag-tagged CHK2 wild-type (F-CHK2-WT) (UniProt O96017). Put plainly: co-IP; lysates of HT29-P cells stably expressing F-CHK2 constructs, treated with oxaliplatin; immunoprecipitated with anti-FLAG M2 affinity gel; western blot for PARP1.

Take “DNA-dependent protein kinase catalytic subunit (DNA-PKcs), endogenous (from UniProt P78527 1-4128) (enzyme)”: the binding entry in experiment [1] is “binds”.
For the substance “poly (ADP-ribose) polymerase 1 (PARP1), endogenous (from UniProt P09874 1-1014) (enzyme)”, the binding result in experiment [2] is “binds weakly”; in experiment [3], “binds”; in experiment [4], “binds”; in experiment [1], “binds”.

Values taken from publication PMC9596403.
